Source: ChEMBL document CHEMBL3988442, “University of Dundee, Small-Polar-MMV Screening Library” (2021).

Mtb growth Cornell: 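Whole-cell assay for inhibitors of Mycobacterium tuberculosis growth, labelled Cornell in the record; the read-out is not stated. The concentration is filed as 10 mM, unlikely as a test dose, so the dose is not known. Higher means stronger inhibition (inferred from two other growth screens of the library). Size under these conditions: about 53,000 compounds, about 900 of them at 50% or above in at least one test.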
Mtb heat-shock: 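Assay on Mycobacterium tuberculosis, filed only as a heat shock assay from Cornell; the read-out is not stated. The concentration is filed as 10 mM, unlikely as a test dose, so the dose is not known. Higher reads as stronger inhibition (inferred: compounds with an IC50 in retests scored well above the rest). Of about 69,000 compounds tested this way, about 930 (1.4%) reached 50% or more in at least one test.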

Each number is a percent effect as filed. How 0% and 100% were set is not recorded. Most values in the screen are low, and negative values occur. Compounds were drawn at random from those tested, without regard to their results.

structure: COc1cc(C)sc1C(=O)NCCNc1ccccc1
Mtb growth Cornell: -12.43
Mtb heat-shock: 57.16

structure: O=C(NCCc1nncn1C1CC1)C1SCCc2sccc21 (centres undefined)
Mtb growth Cornell: 22.46
Mtb heat-shock: -51.04

structure: COc1cc(O)ccc1CN1CCN(C2CCc3ccccc3C2)CC1 (centres undefined)
Mtb heat-shock: 7.33

structure: Cc1cnn(CC2CCCN2Cc2c(C)noc2C)c1 (centres undefined)
Mtb heat-shock: -7.209

structure: COc1cccc(-c2noc(-c3ccc(NCC(C)C)nc3)n2)c1OC
Mtb growth Cornell: 14.35
Mtb heat-shock: -4.362

structure: COCCN1CCc2cc(C(=O)O)c(NCC3CC3)nc2CC1.O=C(O)C(F)(F)F.O=C(O)C(F)(F)F
Mtb heat-shock: -27.3

structure: O=C(Cc1ccc2c(c1)CCO2)N1CCCC(n2cccn2)C1 (centres undefined)
Mtb growth Cornell: 13.84
Mtb heat-shock: 9.1

structure: CC(C)(C)c1coc([C@@H]2COCCN2Cc2ncc[nH]2)n1
Mtb growth Cornell: 1.579
Mtb heat-shock: 1.308

structure: CS(=O)(=O)CCSc1nnc(Cc2ccccc2F)o1
Mtb growth Cornell: 3.437
Mtb heat-shock: -2.152

structure: CCCC(=O)N(C)c1cccc2ncccc12
Mtb growth Cornell: -5.175
Mtb heat-shock: 2.999

structure: O=C(O)C(F)(F)F.[H][C@]12CCCN(Cc3cccc(C)n3)[C@@]1([H])CN(C(=O)c1ccco1)C2
Mtb growth Cornell: -10.51
Mtb heat-shock: -21.32

structure: CC(CNC(=O)Nc1cn[nH]c1)N1CCc2ccccc2C1 (centres undefined)
Mtb heat-shock: 10.07

structure: O=C(O)C(F)(F)F.[H][C@@]12OCCN(S(=O)(=O)C3CC3)[C@@]1([H])CC[C@@H]2Oc1ncccc1F
Mtb heat-shock: 1.238

structure: CCCNC(=O)c1sccc1N(C)S(=O)(=O)c1ccc(Cl)cc1
Mtb growth Cornell: -14.28
Mtb heat-shock: 1.413

structure: CC(C)(C)OC(=O)NC1CCC(NC(=O)c2ccc[nH]2)CC1 (centres undefined)
Mtb growth Cornell: -12.12
Mtb heat-shock: 1.935

structure: CSC(C)C(=O)N(C)CCCc1cc(-c2ccccc2)no1 (centres undefined)
Mtb heat-shock: -6.345

structure: CSc1ccccc1NC(=O)CCC(=O)N(C)C1CCN(C)CC1
Mtb heat-shock: -0.5565

structure: [H][C@]12CN(C(=O)c3cc(C)on3)CC[C@@]1(O)CCN(C(=O)N1CCCC1)C2
Mtb heat-shock: -0.7261

structure: CS(=O)(=O)CCOCCNc1ccc(Br)cn1
Mtb growth Cornell: 14.13
Mtb heat-shock: -5.292

structure: O=S(=O)(N1CCOCC1)N1CCC(Oc2cnccn2)CC1
Mtb growth Cornell: -15.01
Mtb heat-shock: -8.138

structure: CCN1CCN(C)C2(CCN(Cc3ccsc3)CC2)C1=O.O=C(O)C(F)(F)F.O=C(O)C(F)(F)F
Mtb growth Cornell: 19.62
Mtb heat-shock: 5.121

structure: CNC(=O)NC(=O)CCN1CCOC(c2ccc(Br)cc2)C1 (centres undefined)
Mtb growth Cornell: 26.65
Mtb heat-shock: 31.54

structure: Brc1ccc2[nH]c3c(c2c1)CCCC3c1nn[nH]n1 (centres undefined)
Mtb growth Cornell: 21.89
Mtb heat-shock: 8.068

structure: c1cc(-c2ccc3c(c2)CCC32CCN(c3nncs3)CC2)co1
Mtb growth Cornell: -0.9523
Mtb heat-shock: -16.27

structure: Cc1ccc(CNC(=O)CN2CCCCC2Cn2cncn2)s1 (centres undefined)
Mtb growth Cornell: 11.2
Mtb heat-shock: -19.36

structure: Brc1cc(CNCc2nnc3n2CCC3)cs1.Cl
Mtb growth Cornell: 10.31
Mtb heat-shock: 8.499

structure: COc1ccc(OC)c(C2CCN(C3CCN(C(C)=O)CC3)C2)c1 (centres undefined)
Mtb growth Cornell: -59.45
Mtb heat-shock: -0.07862

structure: CNCC(=O)Nc1cccc(-c2cnc(NCCS(C)(=O)=O)nc2)c1
Mtb growth Cornell: 9.472
Mtb heat-shock: -10.24

structure: O=C1CC(NCc2ccc(Cl)s2)CN1Cc1cccc(F)c1 (centres undefined)
Mtb growth Cornell: -4.268
Mtb heat-shock: -6.895

structure: Cc1ccc(C(=O)NCc2cc(F)ccc2N2CCCN(C)CC2)o1
Mtb growth Cornell: -28.18
Mtb heat-shock: -8.535

structure: Cc1cccnc1C(=O)N1CCC(Cc2cnc3[nH]ccc3c2)CC1
Mtb growth Cornell: -47.29
Mtb heat-shock: -23.76

structure: CC(C)(C)c1cc(=O)n2c(n1)SCC(C(=O)NCc1cccs1)C2 (centres undefined)
Mtb growth Cornell: 4.264
Mtb heat-shock: 26.6

structure: CCN(CC)C(=O)[C@@H]1C[C@H](NC(=O)c2cccn2C(C)C)CN1C
Mtb growth Cornell: 41.55
Mtb heat-shock: 2.1

structure: O=C(O)C(F)(F)F.O=C(O)C(F)(F)F.O=C1COC2(CCN(Cc3ccncc3)CC2)CN1c1ccccc1
Mtb growth Cornell: 19.38
Mtb heat-shock: -2.605

structure: O=C(O)C(F)(F)F.[H][C@]12CCN(C(=O)CC3CC3)[C@@]1([H])CC[C@@H](COCc1cccc(C)n1)O2
Mtb growth Cornell: 26.32
Mtb heat-shock: 5.058

structure: Cc1noc(C)c1CN(C)CCC(=O)N1CCc2sccc2C1
Mtb heat-shock: 4.937

structure: Cc1noc(C)c1-c1cccc(C2CN(CC(=O)N(C)C)CCO2)n1.O=CO (centres undefined)
Mtb growth Cornell: 32.17
Mtb heat-shock: -10.11

structure: [H][C@]12CN(Cc3cccc(F)c3)C(=O)[C@@]1([H])CN(S(=O)(=O)CC)C2
Mtb heat-shock: -13.51

structure: CCCn1nccc1-c1cc(C2CCN(S(C)(=O)=O)CC2)ccn1
Mtb growth Cornell: 16.66
Mtb heat-shock: -17.87

structure: Fc1ccc(C2CN(CCc3ccncc3)CCO2)cc1 (centres undefined)
Mtb growth Cornell: -18.89
Mtb heat-shock: 2.252

Some entries from above, unchanged:

With Cc1cnn(CC2CCCN2Cc2c(C)noc2C)c1 (centres undefined) the screen gave Mtb heat-shock: -7.209%.
With CSC(C)C(=O)N(C)CCCc1cc(-c2ccccc2)no1 (centres undefined) the screen gave Mtb heat-shock: -6.345%.
With CCN1CCN(C)C2(CCN(Cc3ccsc3)CC2)C1=O.O=C(O)C(F)(F)F.O=C(O)C(F)(F)F the screen gave Mtb growth Cornell: 19.62%; Mtb heat-shock: 5.121%.
With CC(C)(C)c1coc([C@@H]2COCCN2Cc2ncc[nH]2)n1 the screen gave Mtb growth Cornell: 1.579%; Mtb heat-shock: 1.308%.